For some assays here: Where a protein sequence is shown, tags need not be part of it. For some assays here: For at least one entry, the source does not settle the construct or the ends of the probe. A value given as a limit tells only on which side of the number the result lay.

Chains of the proteins cited; added tags and fusions are not shown. Residues count along the entry.
UniProt O14793, 268-375: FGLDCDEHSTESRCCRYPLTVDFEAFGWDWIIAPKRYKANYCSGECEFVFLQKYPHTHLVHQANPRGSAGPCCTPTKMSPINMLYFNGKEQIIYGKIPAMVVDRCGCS

In one data set the target is T1, GDF11 (mature human) (Homo sapiens) (UniProt O95390).
T1 sequence: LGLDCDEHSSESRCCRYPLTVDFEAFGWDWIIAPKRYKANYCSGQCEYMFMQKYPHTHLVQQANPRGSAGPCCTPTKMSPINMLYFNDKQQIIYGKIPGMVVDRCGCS
In words: binding assay. Conditions: NapdU at all P (n) positions; 20-mer binds, less well than 21-mer; purified recombinant protein; single-stranded DNA; variant of 12060-28_3.
Take “GACTTGCTTTAAGTTTAGCC [12060-28_37 (20-mer)]”: the binding result was “binds”.

Still in this data set, the particulars now being: NapdU at all P (n) positions; method not stated; sequence shown without flanks; purified recombinant protein; single-stranded DNA.
In general, Kd refers to the free concentration of one partner at which half of the binding sites on the other are occupied at equilibrium, for simple one-to-one binding. In the case of “GTCGCCTCGGACTGCTTTAAGTTAGCCGTCCTACTACCA [Table 8 clone SEQ 60]”, the Kd is above 320 nM. For “GTGCTAGGACTTGACTTTAACGTTTAGCTGCTTACATGGAACTC [Table 8 clone SEQ 72]”, the Kd was above 320 nM. For “GTCGCTACGGACTTGATTTAACGTTTTAGCCGCTTACATGGGAACCA [Table 8 clone SEQ 67]”, the Kd is above 320 nM. Same read-out and setting: the figure for “GCGCCTTCGGACTTGCTTAAAGTTTAGCCGCTTGTT [Table 8 clone SEQ 69]” is above 320 nM; for “GTGCCTTCCGGACTTGCCTTTAACGTTTAGCCTAGCTTGCTCACAT [Table 8 clone SEQ 63]” it is above 320 nM.

For the sequence “GCCGCCTTTCGGACTTGACTTTAAGTTTACGCTCGACTTGACTCCATCAT [Table 8 clone SEQ 61]”, the Kd is above 320 nM. Consider “GCCGCCTTCGGTACTTGACTTTAAGTTTGTAGGCCAGCGTTGCTCACAT [Table 8 clone SEQ 64]”, for which the Kd is above 320 nM.

Still in this data set, the particulars now being: NapdU at all P (n) positions; truncation; method not stated; purified recombinant protein; single-stranded DNA; variant of 12060-28_3.
Turning to “GGACTTGCTTTAAGTTTAGCC [12060-28_36 (21-mer)]”, the Kd worked out at 0.443 nM.

Another data set addresses T1, GDF11 (mature human) (Homo sapiens). In words: filter binding. Conditions: NapdU at all P (n) positions; 0.1 uM Z-block; purified recombinant protein; single-stranded DNA; variant of 12060-28_3.
For “CCCTGCGCCTTCGGACTTGCTTCAAGTTTAGCCGCTTGCTCACATCACAA [12060-209_3]”, the Kd was above 320 nM.

Another data set has as its target Myostatin (GDF8, mature human) (Homo sapiens) (UniProt O14793). In words: filter binding. To be noted: NapdU at all P (n) positions; 0.1 uM Z-block; purified recombinant protein; single-stranded DNA.
On to “CTGTGACTAATGTGACCGGAGACTTGCTTTACGTTTAGCGACCTGCACAA [16139-12_3]”, for which the Kd is above 320 nM. Regarding “CTGTGAACTTGATTTAAGTTTAGGCACATACACCACTCCGGACGA [16139-198_3]”, the Kd is above 320 nM. Same read-out and setting: the figure for “CTGTGCGTACTGACTTGATTTACGTTTTAGCGATGCATGCTTGAGCCACAA [16139-122_3]” is above 320 nM; for “CCCTGCGCCTTCGGACTTGCTTTAAGTTTAGCCGCTTGCTCACATCACAA [12060-28_3]” it is above 320 nM; for “CCCTGTGAGACTTGATTTACGTTTAGCTGCTAACATGGGGAACCACACAA [12060-16_3]” it is above 320 nM. On to “CTGTGCTAAGACTGCGGACTTGATTTAGGTTTAGCCGCAAGAAGTCACAA [16139-37_3]”, for which the Kd is above 320 nM. On to “CTGTGGTTAACGACGACTTGATTTACGTTTAGCGGCACCTTACACCACAA [16139-19_3]”, for which the Kd was above 320 nM. Turning to “CCCTGGTTGACAAGGTACTGGACTTGATTTACGTTTAGCCTCAAGCACAA [12058-386_3]”, the Kd was above 320 nM. The same measure, in the same setting: with “CTGTGACCTTCACCCGTGACTTGGTTTACGTTTAGCGGGTAGGTCACAA [16139-178_3]” the figure was above 320 nM; with “CTGTGAGTGTACCTCGCGCTTGATTTACGTTTAGGCGAGGCAGGCCACAA [16139-30_3]”, above 320 nM. “CTGTGGACTGAGTTGGATGGGACTTGATTTAAGTTTAGCCCGCAACACAA [16139-3_3]”: the Kd is above 320 nM.

Staying with this data set, now noted: NapdU at all P (n) positions; 0.1 uM Z-block; purified recombinant protein; single-stranded DNA; variant of 12060-28_3.
As for “CCCTGTGCCTTCGGACTTGCTTTAAGTTTAGCCGCTTGCTCACATCACAA [12060-32_3]”, the Kd was above 320 nM. On to “CCCTGCGCCTTCGGACTTGCTTTAAGTTTAGCCGCTTGTTCACATCACAA [12060-4_3]”, for which the dissociation constant (Kd) was above 320 nM. The same measure, in the same setting: the figure for “CCCTGCGCCTTCGGACTTGCTTCAAGTTTAGCCGCTTGCTCACATCACAA [12060-209_3]” is above 320 nM; for “CCCTGCGCCTTCGGACTTGCTTTAAGTTTAGCCGCTCGCTCACATCACAA [12060-204_3]” it is above 320 nM; for “CCCTGCGCCTTCGGACTTGGTTTAAGTTTAGCCGCTTGCTCACATCACAA [12060-28_39]” it is above 320 nM. Same read-out and setting: the figure for “CCCTGCGCCTTCGGACTTGCTTTAAGTTTAGCCGCTTGCTTACATCACAA [12060-116_3]” is above 320 nM; for “CCCTGCGCCTTCGGACTTGATTTAAGTTTAGCCGCTTGCTCACATCACAA [12060-28_38]” it is above 320 nM. For “CCCTGCGCCTTCGGACTTGCTTTACGTTTAGCCGCTTGCTCACATCACAA [12060-238_3]”, the Kd was above 320 nM. On the same count and under the same terms, the figure for “CCCTGCGCCTTCGGACTTGCTTTAGGTTTAGCCGCTTGCTCACATCACAA [12060-28_40]” is above 320 nM; for “CCCTGCGCCTTCGGACTTGCTTTAAGTTTAGCCGCTTGCTCACGTCACAA [12060-130_3]” it is above 320 nM.

For the sequence “CCCTGCGCCTTCGGACTTGCTTTAAGTTTAGCCGCTTGCTCACAACACAA [12060-300_3]”, the Kd was above 320 nM.
